Laboratory results reported in article PMC3880038.
These are yes or no findings as the source states them, for the method shown. Binding seen in cells or lysates may run through a third protein. Some entries that bind do so weakly or less than the wild type.

Chains of the proteins cited; added tags and fusions are not shown.
UniProt P15311: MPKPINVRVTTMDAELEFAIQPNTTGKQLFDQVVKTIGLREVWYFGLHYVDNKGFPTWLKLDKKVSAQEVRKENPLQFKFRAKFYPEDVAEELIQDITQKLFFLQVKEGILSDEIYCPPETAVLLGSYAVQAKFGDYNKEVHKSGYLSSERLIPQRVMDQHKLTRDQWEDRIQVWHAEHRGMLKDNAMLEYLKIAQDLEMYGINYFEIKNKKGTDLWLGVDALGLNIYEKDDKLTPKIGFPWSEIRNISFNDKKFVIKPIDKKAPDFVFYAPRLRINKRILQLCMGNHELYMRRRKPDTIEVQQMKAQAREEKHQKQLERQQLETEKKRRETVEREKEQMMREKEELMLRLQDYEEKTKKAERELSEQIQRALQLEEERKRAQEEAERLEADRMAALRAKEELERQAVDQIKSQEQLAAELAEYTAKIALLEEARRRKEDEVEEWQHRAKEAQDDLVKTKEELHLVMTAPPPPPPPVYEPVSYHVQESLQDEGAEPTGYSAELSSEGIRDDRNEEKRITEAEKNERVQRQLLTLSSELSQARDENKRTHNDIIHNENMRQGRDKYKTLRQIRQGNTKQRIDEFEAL
UniProt P35241: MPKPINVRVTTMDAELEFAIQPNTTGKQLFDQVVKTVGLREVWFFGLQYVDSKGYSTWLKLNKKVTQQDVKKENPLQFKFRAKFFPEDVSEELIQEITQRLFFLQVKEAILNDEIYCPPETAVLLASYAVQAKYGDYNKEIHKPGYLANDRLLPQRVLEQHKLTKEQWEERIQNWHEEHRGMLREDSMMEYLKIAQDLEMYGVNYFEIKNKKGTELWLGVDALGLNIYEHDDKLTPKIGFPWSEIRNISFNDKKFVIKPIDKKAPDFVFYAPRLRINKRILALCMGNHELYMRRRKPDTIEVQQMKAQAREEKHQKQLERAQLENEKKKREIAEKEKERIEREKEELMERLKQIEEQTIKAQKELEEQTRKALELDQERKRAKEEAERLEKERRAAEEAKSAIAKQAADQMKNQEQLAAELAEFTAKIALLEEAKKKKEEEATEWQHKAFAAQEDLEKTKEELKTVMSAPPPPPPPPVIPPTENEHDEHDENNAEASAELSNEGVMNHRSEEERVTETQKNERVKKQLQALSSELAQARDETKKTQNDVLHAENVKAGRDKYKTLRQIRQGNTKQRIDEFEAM
UniProt P26038: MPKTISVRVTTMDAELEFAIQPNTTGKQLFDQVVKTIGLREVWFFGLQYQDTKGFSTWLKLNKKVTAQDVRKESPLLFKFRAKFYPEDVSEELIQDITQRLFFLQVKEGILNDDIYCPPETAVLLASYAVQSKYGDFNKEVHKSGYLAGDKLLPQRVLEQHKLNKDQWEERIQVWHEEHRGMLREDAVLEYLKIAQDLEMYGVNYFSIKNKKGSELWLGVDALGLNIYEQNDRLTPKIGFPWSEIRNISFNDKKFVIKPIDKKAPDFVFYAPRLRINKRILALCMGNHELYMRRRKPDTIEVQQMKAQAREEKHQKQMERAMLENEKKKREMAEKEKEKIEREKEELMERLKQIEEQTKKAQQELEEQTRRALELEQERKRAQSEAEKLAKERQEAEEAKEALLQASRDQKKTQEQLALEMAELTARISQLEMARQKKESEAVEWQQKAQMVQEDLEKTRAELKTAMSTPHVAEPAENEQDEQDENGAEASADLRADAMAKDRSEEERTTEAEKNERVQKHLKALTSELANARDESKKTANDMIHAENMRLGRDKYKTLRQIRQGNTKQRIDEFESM
UniProt Q28021: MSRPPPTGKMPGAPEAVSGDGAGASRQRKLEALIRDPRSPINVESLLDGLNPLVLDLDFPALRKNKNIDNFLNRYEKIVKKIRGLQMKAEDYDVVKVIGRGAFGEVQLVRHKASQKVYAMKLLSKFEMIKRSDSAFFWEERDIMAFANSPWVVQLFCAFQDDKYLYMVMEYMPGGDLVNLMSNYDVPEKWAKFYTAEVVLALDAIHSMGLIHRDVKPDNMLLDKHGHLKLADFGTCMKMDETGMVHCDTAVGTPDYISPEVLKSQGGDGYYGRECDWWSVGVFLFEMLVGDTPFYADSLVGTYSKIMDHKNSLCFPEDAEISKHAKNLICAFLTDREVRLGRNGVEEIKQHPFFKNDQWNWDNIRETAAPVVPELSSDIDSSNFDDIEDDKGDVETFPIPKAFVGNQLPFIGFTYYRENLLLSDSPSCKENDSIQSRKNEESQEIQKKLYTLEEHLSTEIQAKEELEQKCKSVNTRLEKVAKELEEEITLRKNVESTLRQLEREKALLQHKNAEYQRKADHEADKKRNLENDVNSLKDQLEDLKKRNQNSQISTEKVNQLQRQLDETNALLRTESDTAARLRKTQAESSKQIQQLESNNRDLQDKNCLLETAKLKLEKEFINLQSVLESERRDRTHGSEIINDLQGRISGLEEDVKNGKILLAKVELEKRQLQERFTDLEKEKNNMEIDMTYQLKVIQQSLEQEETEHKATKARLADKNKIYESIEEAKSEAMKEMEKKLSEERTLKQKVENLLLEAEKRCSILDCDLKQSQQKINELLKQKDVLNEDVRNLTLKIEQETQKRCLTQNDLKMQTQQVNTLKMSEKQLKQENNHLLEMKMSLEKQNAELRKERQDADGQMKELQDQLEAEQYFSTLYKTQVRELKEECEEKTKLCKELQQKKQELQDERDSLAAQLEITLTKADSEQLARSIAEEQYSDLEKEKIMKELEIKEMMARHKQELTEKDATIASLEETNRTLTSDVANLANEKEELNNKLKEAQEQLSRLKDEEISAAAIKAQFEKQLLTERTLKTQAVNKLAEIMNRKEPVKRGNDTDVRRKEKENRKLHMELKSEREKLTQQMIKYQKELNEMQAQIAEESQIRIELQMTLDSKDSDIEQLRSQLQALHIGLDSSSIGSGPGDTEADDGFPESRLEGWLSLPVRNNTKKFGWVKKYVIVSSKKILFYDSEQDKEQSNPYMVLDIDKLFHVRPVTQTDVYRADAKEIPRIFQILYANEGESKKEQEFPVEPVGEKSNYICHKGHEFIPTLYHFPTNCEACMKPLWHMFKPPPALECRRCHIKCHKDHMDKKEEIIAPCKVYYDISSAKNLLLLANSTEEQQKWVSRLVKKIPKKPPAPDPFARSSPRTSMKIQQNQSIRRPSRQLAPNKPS
UniProt Q2YDP5: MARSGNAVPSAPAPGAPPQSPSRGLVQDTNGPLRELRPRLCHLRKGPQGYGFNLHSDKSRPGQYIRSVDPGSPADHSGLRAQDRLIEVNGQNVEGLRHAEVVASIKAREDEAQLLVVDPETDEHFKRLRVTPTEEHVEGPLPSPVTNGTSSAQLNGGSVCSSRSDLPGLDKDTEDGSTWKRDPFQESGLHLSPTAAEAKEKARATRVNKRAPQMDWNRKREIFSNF

Tests used:
[1] = target: c-myc-tagged ezrin (pCMV-myc ezrin) (UniProt P15311); assay: co-IP; anti-c-myc immunoprecipitation from lysates of BPAEC transfected with pCMV-myc ezrin, radixin or moesin (IP buffer with 150 mM NaCl, 1% Nonidet P-40; protein G Sepharose, 4°C), Western blot for c-myc, EBP50 and NHERF2
[2] = target: c-myc-tagged radixin (pCMV-myc radixin) (UniProt P35241); assay: as above
[3] = target: c-myc-tagged moesin (pCMV-myc moesin) (UniProt P26038); assay: as above
[4] = target: Rho kinase 2 (ROCK2), endogenous in BPAEC (bovine (endogenous in BPAEC)) (UniProt Q28021); assay: co-IP; endogenous EBP50, NHERF2 or ROCK2 immunoprecipitated from BPAEC lysates (20 mM Tris HCl pH 7.4, 150 mM NaCl, 2 mM EDTA, 2 mM sodium vanadate, 1% Nonidet P-40; protein G Sepharose, 4°C), Western blot; cells untreated, with nocodazole (80 ng/ml, 16 h), or transfected with non-silencing RNA
[5] = target: NHERF2 (Na+/H+ exchanger regulatory factor 2), endogenous in BPAEC (bovine (endogenous in BPAEC)) (UniProt Q2YDP5); assay: as above

binding [1]	binding [2]	binding [3]	binding [4]	binding [5]	Substance
binds	binds	binds	binds		NHERF2 (Na+/H+ exchanger regulatory factor 2), endogenous in BPAEC (from UniProt Q2YDP5 1-226)
				binds	Rho kinase 2 (ROCK2), endogenous in BPAEC (from UniProt Q28021 1-1388) (enzyme)
